These are yes or no findings as the source states them, for the method shown. Some results given as binding are weak or reduced against the parent protein; the word gives no strength.
How the values were obtained:
[1] = target: recombinant mouse leptin-R (mouse) (UniProt P48356); experiment: competition ELISA, coated mouse leptin-R, leptin against ZMC2
[2] = target: recombinant mouse leptin-R (mouse) (UniProt P48356); experiment: competition ELISA, coated recombinant mouse leptin-R, leptin against ZMC2
[3] = target: recombinant human leptin-R (human) (UniProt P48357); experiment: competition ELISA, coated human leptin-R, leptin varied against ZMC2 10 ng/ml
[4] = target: recombinant human leptin-R (human) (UniProt P48357); experiment: competition ELISA, coated recombinant human leptin-R, leptin varied 0.1-10000 ng/ml against ZMC2 10 ng/ml

The chains behind the UniProt entries cited, without tags or fusion partners. Residues count along the entry.
UniProt P48356, residues 22-839: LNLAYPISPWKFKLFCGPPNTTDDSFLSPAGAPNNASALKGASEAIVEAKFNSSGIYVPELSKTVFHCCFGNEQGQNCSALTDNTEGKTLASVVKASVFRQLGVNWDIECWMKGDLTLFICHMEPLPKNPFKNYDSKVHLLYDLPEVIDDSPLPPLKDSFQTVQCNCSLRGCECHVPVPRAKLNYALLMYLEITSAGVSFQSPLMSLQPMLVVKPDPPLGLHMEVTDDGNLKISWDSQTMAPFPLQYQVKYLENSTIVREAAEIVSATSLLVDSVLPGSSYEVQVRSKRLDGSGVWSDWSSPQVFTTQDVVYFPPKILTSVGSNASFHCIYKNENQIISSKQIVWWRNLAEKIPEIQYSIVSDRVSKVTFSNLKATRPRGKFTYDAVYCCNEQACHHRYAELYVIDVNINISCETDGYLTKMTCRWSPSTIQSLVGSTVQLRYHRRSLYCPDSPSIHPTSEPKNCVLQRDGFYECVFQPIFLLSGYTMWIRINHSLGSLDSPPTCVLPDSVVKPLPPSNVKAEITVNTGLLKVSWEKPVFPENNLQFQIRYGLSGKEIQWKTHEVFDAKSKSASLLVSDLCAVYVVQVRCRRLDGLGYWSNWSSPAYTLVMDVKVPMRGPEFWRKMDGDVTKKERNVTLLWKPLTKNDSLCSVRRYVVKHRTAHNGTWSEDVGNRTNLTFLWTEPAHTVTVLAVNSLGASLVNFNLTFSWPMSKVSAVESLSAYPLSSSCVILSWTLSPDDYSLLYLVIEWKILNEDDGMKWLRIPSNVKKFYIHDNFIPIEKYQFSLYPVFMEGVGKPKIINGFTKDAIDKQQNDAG
UniProt P48357, residues 22-839: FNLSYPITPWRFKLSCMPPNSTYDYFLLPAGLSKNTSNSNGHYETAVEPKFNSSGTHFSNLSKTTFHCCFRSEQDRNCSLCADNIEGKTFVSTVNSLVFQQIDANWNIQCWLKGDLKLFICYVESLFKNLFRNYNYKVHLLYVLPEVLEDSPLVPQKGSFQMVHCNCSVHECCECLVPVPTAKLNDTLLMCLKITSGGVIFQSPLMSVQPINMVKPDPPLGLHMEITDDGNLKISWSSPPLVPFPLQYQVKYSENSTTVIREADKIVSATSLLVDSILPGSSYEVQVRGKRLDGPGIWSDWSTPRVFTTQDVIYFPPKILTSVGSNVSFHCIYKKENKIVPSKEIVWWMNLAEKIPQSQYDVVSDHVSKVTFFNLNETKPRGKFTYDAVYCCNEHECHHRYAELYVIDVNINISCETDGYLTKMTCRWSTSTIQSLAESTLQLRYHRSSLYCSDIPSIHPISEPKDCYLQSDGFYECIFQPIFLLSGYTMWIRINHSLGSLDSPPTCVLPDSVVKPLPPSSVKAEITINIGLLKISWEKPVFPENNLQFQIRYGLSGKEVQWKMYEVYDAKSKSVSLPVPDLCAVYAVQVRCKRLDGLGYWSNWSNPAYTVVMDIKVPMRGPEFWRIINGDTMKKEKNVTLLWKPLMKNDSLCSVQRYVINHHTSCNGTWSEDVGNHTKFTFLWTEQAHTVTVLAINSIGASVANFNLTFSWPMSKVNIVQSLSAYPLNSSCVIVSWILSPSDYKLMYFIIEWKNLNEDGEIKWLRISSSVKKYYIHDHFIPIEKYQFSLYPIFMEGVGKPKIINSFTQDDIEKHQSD
UniProt P41159, residues 22-167: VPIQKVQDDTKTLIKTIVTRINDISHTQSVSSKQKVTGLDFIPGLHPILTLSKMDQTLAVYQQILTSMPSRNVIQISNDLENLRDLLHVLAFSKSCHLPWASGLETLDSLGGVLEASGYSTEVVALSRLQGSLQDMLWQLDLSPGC

Measured: binding

leptin (from UniProt P41159 22-167) (ligand)
binds: [1] | [2] | [3] | [4]

From patent US20080118503A1
